Here are results for one molecule from article PMC6027488.

The chains behind the UniProt entries cited, without tags or fusion partners. Residues count along the entry.
UniProt P01005, residues 25-210: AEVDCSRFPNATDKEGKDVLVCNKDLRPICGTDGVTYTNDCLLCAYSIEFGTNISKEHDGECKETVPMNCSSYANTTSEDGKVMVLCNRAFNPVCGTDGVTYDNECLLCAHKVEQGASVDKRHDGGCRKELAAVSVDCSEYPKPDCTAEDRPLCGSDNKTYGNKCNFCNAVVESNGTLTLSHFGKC

In the experiment the target is ovomucoid from chicken egg (chicken) (UniProt P01005). Put plainly: peptide or protein array; animal gastrointestinal mucin microarray (mucins printed on Nexterion slide H); TFF1 dimer at 1, 5, 10 and 50 µg/mL in PBS, 1 h at 37 °C; detected with monoclonal TFF1 antibody 14H3 and Cy5-labelled goat anti-mouse antibody; one experiment; both purified.

No constants are given. Whether binding was seen depends on the method and setting. Some binding calls cover weakened binding; strength is not graded here.

B1: Recombinant human TFF1 dimer (protein, UniProt P04155 25-84)
chain: EAQTETCTVAPRERQNCGFPGVTPSQCANKGCCFDDTVRGVPWCFYPNTIDVPPEEECEF
For the molecule B1, the binding result is “binds”.
